Data published in article PMC9728965, “Stomatal CO2/bicarbonate sensor consists of two interacting protein kinases, Raf-like HT1 and non-kinase-activity requiring MPK12/MPK4” (Science Advances, 2022).
These are yes or no findings as the source states them, for the method shown. For part of these data: In cells and extracts the contact can be indirect. Some entries that bind do so weakly or less than the wild type. For part of these data: Where a sequence is shown, tags or fusion partners need not be part of it.

Tests used:
[1] = biological target: T1, cVenus-MPK12 (Arabidopsis thaliana) (UniProt Q8GYQ5); test: split reporter; split-Venus BiFC in N. benthamiana leaves, 35S promoter, inoculant-blinded; plants at nominally 100 ppm CO2 or shifted to 800 ppm CO2 for 4 hours; fluorescence intensity by ImageJ
T1 sequence: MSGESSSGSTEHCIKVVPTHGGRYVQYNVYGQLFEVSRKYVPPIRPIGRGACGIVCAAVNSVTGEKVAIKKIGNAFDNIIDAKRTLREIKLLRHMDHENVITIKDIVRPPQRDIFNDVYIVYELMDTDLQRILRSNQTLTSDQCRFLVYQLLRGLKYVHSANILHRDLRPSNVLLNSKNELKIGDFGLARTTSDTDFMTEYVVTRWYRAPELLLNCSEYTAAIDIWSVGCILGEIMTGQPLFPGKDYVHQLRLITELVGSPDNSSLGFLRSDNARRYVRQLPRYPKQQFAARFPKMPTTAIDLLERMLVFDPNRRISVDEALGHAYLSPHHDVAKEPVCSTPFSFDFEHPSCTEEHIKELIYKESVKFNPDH

GST-MPK11 (Arabidopsis) = biological target: T2, GST-MPK11 (Arabidopsis) (UniProt Q9LMM5); test: pull-down; GST-MPK on glutathione Sepharose 4B beads, His-HT1 as prey; 5 ug of each protein in 200 ul of 50 mM tris-HCl pH 7.5, 150 mM NaCl, 0.1% Triton X-100, 1 mM DTT; 20 mM NaHCO3 or 20 mM NaCl (control) in all buffers including washes; room temperature; immunoblot with anti-GST and anti-His; both purified
T2 sequence: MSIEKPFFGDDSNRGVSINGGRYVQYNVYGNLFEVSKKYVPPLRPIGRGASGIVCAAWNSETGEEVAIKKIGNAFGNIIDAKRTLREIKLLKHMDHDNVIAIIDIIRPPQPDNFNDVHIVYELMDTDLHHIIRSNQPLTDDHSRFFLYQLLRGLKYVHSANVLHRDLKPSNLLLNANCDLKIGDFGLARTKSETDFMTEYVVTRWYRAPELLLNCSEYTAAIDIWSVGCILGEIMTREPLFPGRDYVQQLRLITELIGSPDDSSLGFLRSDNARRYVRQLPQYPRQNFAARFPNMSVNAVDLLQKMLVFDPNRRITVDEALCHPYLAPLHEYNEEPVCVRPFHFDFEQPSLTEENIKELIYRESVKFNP

GST-MPK3 (Arabidopsis) = biological target: T3, GST-MPK3 (Arabidopsis) (UniProt Q39023); test: as above
T3 sequence: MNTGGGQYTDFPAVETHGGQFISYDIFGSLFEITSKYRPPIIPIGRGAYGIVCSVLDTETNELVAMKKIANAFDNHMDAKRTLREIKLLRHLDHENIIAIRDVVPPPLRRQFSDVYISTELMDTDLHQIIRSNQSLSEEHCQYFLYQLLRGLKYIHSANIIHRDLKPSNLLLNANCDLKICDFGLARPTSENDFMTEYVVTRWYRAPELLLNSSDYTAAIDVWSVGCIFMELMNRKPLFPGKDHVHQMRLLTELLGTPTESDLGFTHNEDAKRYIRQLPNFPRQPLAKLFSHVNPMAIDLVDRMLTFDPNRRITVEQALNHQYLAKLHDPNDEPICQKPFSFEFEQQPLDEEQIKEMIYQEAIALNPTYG

B1: nVenus-HT1 (enzyme, UniProt Q2MHE4 1-390)
chain: MSGLCFNPFRLRWSLRSKLPLEPSLPNLPCNPSSSKTNRYAEAETMEKKRFDSMESWSMILESENVETWEASKGEREEWTADLSQLFIGNKFASGAHSRIYRGIYKQRAVAVKMVRIPTHKEETRAKLEQQFKSEVALLSRLFHPNIVQFIAACKKPPVYCIITEYMSQGNLRMYLNKKEPYSLSIETVLRLALDISRGMEYLHSQGVIHRDLKSNNLLLNDEMRVKVADFGTSCLETQCREAKGNMGTYRWMAPEMIKEKPYTRKVDVYSFGIVLWELTTALLPFQGMTPVQAAFAVAEKNERPPLPASCQPALAHLIKRCWSENPSKRPDFSNIVAVLEKYDECVKEGLPLTSHASLTKTKKAILDHLKGCVTSISSPFSSSSVPVNA
binding [1]: binds

B2: His-HT1 (high leaf temperature 1, Raf-like protein kinase), wild type (enzyme, UniProt Q2MHE4 1-390)
chain: MSGLCFNPFRLRWSLRSKLPLEPSLPNLPCNPSSSKTNRYAEAETMEKKRFDSMESWSMILESENVETWEASKGEREEWTADLSQLFIGNKFASGAHSRIYRGIYKQRAVAVKMVRIPTHKEETRAKLEQQFKSEVALLSRLFHPNIVQFIAACKKPPVYCIITEYMSQGNLRMYLNKKEPYSLSIETVLRLALDISRGMEYLHSQGVIHRDLKSNNLLLNDEMRVKVADFGTSCLETQCREAKGNMGTYRWMAPEMIKEKPYTRKVDVYSFGIVLWELTTALLPFQGMTPVQAAFAVAEKNERPPLPASCQPALAHLIKRCWSENPSKRPDFSNIVAVLEKYDECVKEGLPLTSHASLTKTKKAILDHLKGCVTSISSPFSSSSVPVNA
binding (GST-MPK11 (Arabidopsis)): no binding (tested: 5 ug of each protein in 200 ul)
binding (GST-MPK3 (Arabidopsis)): no binding (tested: 5 ug of each protein in 200 ul)
